# Library screening results

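Whole-cell assay for inhibitors of Mycobacterium tuberculosis growth, labelled Cornell in the record; the read-out is not stated. The concentration is filed as 10 mM, unlikely as a test dose, so the dose is not known. Higher means stronger inhibition (inferred from two other growth screens of the library). About 53,000 compounds were tested under these conditions; 1.7% (about 900) showed 50% or more at least once.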

Values are the deposited “Percent Effect”, in %.
The record does not define 0% and 100%; most values in the screen are far below 50% and negative numbers occur (in some assays of this library far below -100).
The compounds are a random part of those screened.

compound,Percent Effect
CN(Cc1ccc(-n2cccn2)cc1)C(=O)CCC(F)(F)F,-2.335%
C[C@@H]1CN(CCC(=O)N(C)Cc2ccccc2)CC[C@@]1(O)C1CCC1,-16.53%
CC(C)c1cc(N(C)Cc2cc(C3CC3)on2)n2nccc2n1,5.416%
CN(C)C(=O)COCc1cncc2c1CCN(Cc1ccccc1)C2.O=C(O)C(F)(F)F.O=C(O)C(F)(F)F,24.21%
Cc1nc(CCCNC(=O)[C@H]2CNC[C@@H](C(=O)N3CCCC3)C2)sc1C,3.424%
COc1ccc(Cl)cc1-n1cnc(CCNC(C)=O)c1,-4.521%
CCCOCC1CCN(C(=O)Cn2ncc(N3CCCC3)cc2=O)C1 (centres undefined),-20.59%
CCc1nnc2n1CCN(C(=O)CN(C)C1CC1)C2,-12.51%
CC(=O)Nc1nc(C(=O)NCc2ccc(N3CCCC3)nc2)cs1,-0.1463%
CC(C)CC(C)NCc1cccnc1N1CCOCC1 (centres undefined),-12.43%
Cc1cc(-c2c(C)c(-c3cnn(C)c3)nc(N)c2C#N)oc1C,46.2%
Cn1cc(CN2CCC[C@]3(C[C@H](Oc4ccccn4)CO3)C2)cn1,4.951%
CC(C)NC(=O)C1CN(C(=O)c2cccs2)CC12CCOCC2 (centres undefined),19.88%
CCC(C)NC(=O)c1snnc1-c1ccc(OC)cc1 (centres undefined),21.58%
CC(NC(=O)Nc1cnn(CC(N)=O)c1)c1ccc(Cl)s1 (centres undefined),1.905%
CCc1ccc(CC)c(NCc2cnc(N3CCOCC3)nc2)c1,21.71%
COc1ccc(CNCC2CCN(CCO)CC2)cc1F,6.634%
Cc1nn(CC(=O)Nc2ccc(F)cc2)c(N)c1C#N,16.82%
CSCCC(=O)N1CCC(c2nccn2Cc2cscn2)CC1,3.643%
CC(C)Cc1cc(NC(=O)c2ccccn2)n(C)n1,4.96%
Cc1cnc(N(C)CCCc2cnn(C)c2)nc1N(C)C,-11.13%
Cc1cn(-c2ccccc2)nc1NS(=O)(=O)c1cc(C(=O)O)ccc1Cl,-12.48%
CC(C)N1CCCn2nc(C(=O)NCCc3ccccn3)cc2C1,28.57%
O=C(c1csnn1)N1CCc2[nH]nc(COc3cccc(Cl)c3)c2C1,28.21%
c1ccc(-c2noc(C3CCN(CCn4cccn4)CC3)n2)cc1,7.133%
COc1cc(CN2CCCC2)ccc1Oc1ccc2c(c1)CC(CN)O2 (centres undefined),-3.573%
COc1ccc(C(=O)N2CCCC3(CCCC(=O)N3C)C2)cc1 (centres undefined),27.86%
CCN(C)c1ncnc2c1CCN(Cc1ccoc1)CC2,4.065%
Cc1c(C2CC2)n[nH]c1NC(=O)C1CCCN(C(=O)NCC(C)C)C1 (centres undefined),-0.1854%
COc1cccc(OCC(=O)NS(=O)(=O)c2cc(F)ccc2F)c1,40.43%
CC(C)(CNC(=O)C1(c2ccccc2)CCOCC1)C(=O)O,9.915%
O=C(c1cc2c(s1)CCC2)N1CCC(c2ccncc2)CC1,14%
Cn1c(CCCNc2nccnc2C#N)nc2ccccc21,31.19%
CC(CN1CCN(C)CC1)NC(=O)c1cc(Cl)c2c(c1)OCO2 (centres undefined),1.568%
O=C(Nc1ccnc2ccnn12)c1ccc(N2CCC(O)CC2)cc1,85.62%
[H][C@]12CCCN(S(=O)(=O)c3ccc(Cl)s3)[C@@]1([H])CN(C(=O)C1CC1)C2,19.54%
O=C(COCc1nc(-c2ccncc2)no1)NC1CCCCC1,-20.56%
Cc1cc(CN2CCC(CNC(=O)c3noc4c3CCCC4)C2)[nH]n1 (centres undefined),-17.73%
CN(Cc1cnn(C)c1)C(CO)c1cccc(Br)c1 (centres undefined),2.32%
CCCSc1nn(CCCN(C)C)c2nc3sc(C)c(CC)c3c(=O)n12,2.903%
Cc1cc(C(=O)N2CCn3c(COCC4CCCC4)cnc3C2C)on1 (centres undefined),15.88%
CC(C)N1C[C@@H](F)[C@@H](OCc2nc3ncccc3[nH]2)C1,16.83%
Cl.O=C1CC2(CCNCC2)C(=O)N1c1cccc(F)c1,19.05%
O=C1CC[C@@H](CN(Cc2ccncc2)Cc2nc(CC3CC3)no2)N1,4.414%
Cc1ccc(CN(CCCN(C)C)Cc2cnc(C)n2C)o1.O=C(O)CC(O)(CC(=O)O)C(=O)O,1.392%
CCn1c(C(=O)N2CCN(CC(C)O)CC2)cc2ccccc21 (centres undefined),-23.09%
Cc1cccc(C(=O)NCCNS(=O)(=O)c2cccs2)c1C,27.49%
O=C(NCCOc1ccc(Cl)cn1)Nc1cccnc1,11.59%
CCN1CCOCC2(CCCN(C(=O)c3cccc(O)c3)C2)C1 (centres undefined),10.94%
[H][C@@]12COC[C@]1(C(=O)NCc1cccs1)CN(C)C2,-13.46%
C[C@@H]1C[C@H](C(F)(F)F)n2nc(C3CCN(S(=O)(=O)N(C)C)CC3)cc2N1,10.09%
O=C(c1cnc(O)cn1)N1CCCC1c1nc2cc(F)ccc2[nH]1 (centres undefined),2.155%
[H][C@@]12CCN(S(=O)(=O)c3cccnc3)C[C@]1(c1nc(C)no1)CCO2,-17.91%
Cn1nc(C#N)c2c1CN(C(=O)c1ccnnc1)CCC2,2.588%
O=C(c1ccc(N2CCCC2)nc1)N1CCCC(c2nccs2)C1 (centres undefined),25.97%
Cn1c(C(F)(F)F)nn(CCNC(=O)CCc2ccccc2)c1=O,-6.426%
Cc1cccc(CN2CCC3(CC2)CN(c2cnn(C)c2)C(=O)CO3)n1.O=C(O)C(F)(F)F,-21.96%
CN1CCN(Cc2cccnc2)C(=O)C12CCN(C1CCOC1)CC2.O=C(O)C(F)(F)F.O=C(O)C(F)(F)F.O=C(O)C(F)(F)F (centres undefined),14.75%
O=C(NCc1nncn1-c1ccccc1)C1CC(=O)N(CC2CC2)C1 (centres undefined),10.32%
CN(Cc1cnn(C)c1)C(=O)c1ccc(=O)n(C)n1,-6.928%
COCCNc1nnc(-c2ccccn2)s1,-13.04%
CC(C)C(Sc1nccn1C1CC1)C(=O)NCc1cccnc1 (centres undefined),-13.64%
[H][C@@]12C[C@H](C(=O)Nc3cccnc3)[C@@]([H])(CN(S(=O)(=O)N(C)C)C1)O2,-12.64%
O=C(Nc1ccccc1-c1cccs1)N1CCOCC1,-16.9%
CCCC(C)CS(=O)(=O)NCc1cccnc1OC (centres undefined),8.459%
Cc1cccc(N2CCN(C(=O)CC3(O)CCCC3)C(C)C2)n1 (centres undefined),8.736%
CCOCCOC(C)C(=O)NCc1cn2cc(Br)ccc2n1 (centres undefined),14.81%
CC(C)(C(=O)NCC1CC1)c1ccccc1F,17.83%
COc1ccc(CNC(=O)CCc2nnc3ccccn3c2=O)cc1,-5.222%
COc1cc(N2CC[C@H](O)[C@@H]2Cc2cnn(C)c2)ncn1,-3.69%
CSc1ccc(C(CNC(=O)C2CC2)N2CCc3sccc3C2)cc1 (centres undefined),-11.03%
[H][C@]12CN(Cc3ccsc3)CC[C@@]1(O)CCN(C(=O)COC)C2,12.33%
CCn1nnc(NCc2cc(Br)cc(Br)c2OC)n1,31.18%
Cc1cccc(C(=O)N2CCCN(CCCSCC#N)CC2)c1,14.27%
Cc1cccc2ncn(C(C)Cn3cccn3)c(=O)c12 (centres undefined),-20.77%
CCN(Cc1cnc(NCc2ccccc2)nc1)C1CCS(=O)(=O)C1 (centres undefined),10.06%

The last 5 entries again:

| compound | Percent Effect |
|---|---|
| `[H][C@]12CN(Cc3ccsc3)CC[C@@]1(O)CCN(C(=O)COC)C2` | 12.33% |
| `CCn1nnc(NCc2cc(Br)cc(Br)c2OC)n1` | 31.18% |
| `Cc1cccc(C(=O)N2CCCN(CCCSCC#N)CC2)c1` | 14.27% |
| `Cc1cccc2ncn(C(C)Cn3cccn3)c(=O)c12` (centres undefined) | -20.77% |
| `CCN(Cc1cnc(NCc2ccccc2)nc1)C1CCS(=O)(=O)C1` (centres undefined) | 10.06% |

Source: ChEMBL document CHEMBL3988442, “University of Dundee, Small-Polar-MMV Screening Library” (2021).